Laboratory results from US10280197B2, “Discovery of the first selective C5A receptor 2 (C5L2/C5AR2) ligands” (The Regents of the University of California, priority 2015, dated 2019).
Some results were stated once for a whole list of compounds, not compound by compound.

Sequences of proteins named here, by UniProt entry; tags and fusion partners are left off. A change or cut given only in a name is not applied to a line headed by its entry.
UniProt Q9P296: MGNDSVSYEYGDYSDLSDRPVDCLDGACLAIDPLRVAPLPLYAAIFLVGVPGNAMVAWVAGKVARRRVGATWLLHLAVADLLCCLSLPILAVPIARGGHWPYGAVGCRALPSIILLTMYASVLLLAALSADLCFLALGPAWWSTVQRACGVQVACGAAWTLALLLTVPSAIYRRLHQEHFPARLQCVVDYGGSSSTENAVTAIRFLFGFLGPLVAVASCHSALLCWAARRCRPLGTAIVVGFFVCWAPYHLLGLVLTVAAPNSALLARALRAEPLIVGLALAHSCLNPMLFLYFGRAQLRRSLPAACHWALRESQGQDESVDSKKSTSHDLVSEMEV

Target: T1, human C5a2 (Flp-In CHO-C5a2 membranes) (Homo sapiens, UniProt Q9P296)
T1 construct: expressed in transfected cells
Assay: C5a2 receptor binding, scintillation proximity assay (125I-C5a displacement)
Details: inhibition of 125I-C5a binding to C5a2 membranes
Experimental: Membranes were prepared from Flp-In CHO-05a2 cells by a previously described method^46. Briefly, cells were washed with PBS, pH 7.4, and harvested into buffer (50 mM Tris-HCl, pH 7.4, 5 mM MgCl2, 1 mM CaCl2) before homogenizing with a Polytron homogenizer for 3 min on setting 22. Cells were centrifuged at 150×g for 5 min at 4° C. The supernatant was recovered and centrifuged at 22 000×g for 1 h at 4° C. Membrane pellets were then resuspended in 0.4 mL of ice-cold buffer (50 mM Tris-HCl, pH 7.4, 5 mM MgCl2, 1 mM CaCl2, containing 10% glycerol) with aliquots stored at −80° C. The protein concentration of the membrane preparation was determined by Bradford method^47.
C5a2 receptor binding studies were performed using a modification of a previously described scintillation proximity assay (SPA) method^48. Briefly, C5a2 SPA studies were performed in 96-well white isoplates with clear flat bottoms (Perkin Elmer, Waltham, Mass., USA). […] Radioligand binding was then assessed for 30 s/well using a 1450 Microbeta scintillation counter (Perkin Elmer).

Row | Substance | Ki [nM]
1 | C3a: human isolated complement protein purchased from Merck Biosciences [Peptide C3a] | > 1000
2 | C3a-des Arg: human isolated C3a-des Arg/acylation-stimulating protein (ASP), purchased from Merck Biosciences | > 1000
